Where a name gives a salt, the structure may show the parent alone. ± gives the uncertainty stated by the source. The list shows a part of the results. Part of the spread comes from offsets between plates or batches.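 At 6 dpf, larvae had a heat-shock-induced fluorescent stripe placed in rod outer segments; shedding distance, from stripe to outer segment tip, was measured in confocal stacks, roughly three fish per compound. Controls received 0.2% DMSO vehicle; compounds were flagged for ≥20% change versus same-week control and p < 0.001 (Dunnett test, mixed-effects models).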
Experiments:
[1] = system: Danio rerio larva rod photoreceptor outer segment; test: rod outer segment growth distance Dg, difference from same-week DMSO control mean; higher = more outer segment growth; conditions: 20 µM; treatment time: 4 days (6-10 dpf)
[2] = system: Danio rerio larva rod photoreceptor outer segment; test: rod outer segment shedding distance Ds, difference from same-week DMSO control mean; higher = less outer segment shedding; conditions: 20 µM; treatment time: 4 days (6-10 dpf)

Compound | rod outer segment growth distance Dg [1] | rod outer segment shedding distance Ds [2]
CCOc1ccc(Cc2cc([C@@H]3O[C@H](CO)[C@@H](O)[C@H](O)[C@H]3O)ccc2Cl)cc1 [Dapagliflozin] | -0.88 ± 0.15 um | -0.73 ± 0.17 um
Nc1nc(N)c2nc(-c3cccc(O)c3)c(-c3cccc(O)c3)nc2n1 | 0.49 ± 0.31 um | -0.07 ± 0.17 um
COc1ccc2c(c1)c(CC(=O)OCC(=O)O)c(C)n2C(=O)c1ccc(Cl)cc1 [Acemetacin] | -1.52 ± 0.27 um | -0.68 ± 0.17 um
Cc1cnc(Nc2ccc(N3CCN(C)CC3)cc2)nc1Nc1cccc(S(=O)(=O)NC(C)(C)C)c1 | -1.03 ± 0.15 um | -0.08 ± 0.13 um
CCOC(=O)[C@H](CCc1ccccc1)N[C@@H](C)C(=O)N1Cc2ccccc2C[C@H]1C(=O)O [Quinapril HCl] | 0.94 ± 0.3 um | -0.61 ± 0.17 um
O=C(NCCCNc1nc(Nc2cccc(NC(=O)N3CCCC3)c2)ncc1I)c1cccs1 | -0.21 ± 0.25 um | -0.28 ± 0.31 um
CC(=O)c1cc([N+](=O)[O-])c(Sc2ccc(F)cc2F)s1 | 0.41 ± 0.19 um | 0.99 ± 0.26 um
N=C(N)NC(=N)NCCc1ccccc1 [Phenformin HCl] | -0.91 ± 0.21 um | 0.35 ± 0.19 um
CN(C)CCOc1ccc(-c2nc(-c3ccncc3)c(-c3ccc4c(c3)CC/C4=N\O)[nH]2)cc1 | -0.21 ± 0.24 um | -0.57 ± 0.34 um
O=C(O)C(Cc1c[nH]c2ccccc12)N1C(=O)c2ccccc2C1=O (stereo not given) | 0 ± 0.16 um | 0.08 ± 0.14 um
COc1cc(Nc2nc3ccccc3nc2NS(=O)(=O)c2ccc(NC(=O)c3ccc(C)c(OC)c3)cc2)cc(OC)c1 | -1.04 ± 0.21 um | 0.69 ± 0.17 um
COc1cc(C2Oc3cc([C@H]4Oc5cc(O)cc(O)c5C(=O)[C@@H]4O)ccc3OC2CO)ccc1O (stereo not given in full) [Silymarin] | -0.45 ± 0.22 um | 0.54 ± 0.24 um
Cn1nc(C(C)(C)C)cc1C(=O)N[C@@H](Cc1cccc(Cl)c1)C(=O)NCC#N [Cathepsin Inhibitor 1] | 0.96 ± 0.16 um | -0.28 ± 0.13 um
CCOc1ccccc1N=Nc1c(C)[nH]n(-c2nc(-c3ccccc3)cs2)c1=O | -0.11 ± 0.29 um | -0.63 ± 0.31 um
CC(=O)c1c(C)c2cnc(Nc3ccc(N4CCNCC4)cn3)nc2n(C2CCCC2)c1=O | -1.82 ± 0.21 um | -0.54 ± 0.26 um
Cc1ccc(C(=O)Nc2cccc(C(F)(F)F)c2)cc1Nc1nc(-c2cccnc2)nc2c1cnn2C | 0.43 ± 0.25 um | 0.84 ± 0.3 um
CC[C@@]1(O)C(=O)OCc2c1cc1n(c2=O)Cc2cc3c(CN(C)C)c(O)ccc3nc2-1 [Topotecan HCl] | -0.1 ± 0.22 um | 0.39 ± 0.26 um
Cc1cn([C@H]2C=C[C@@H](CO)O2)c(=O)[nH]c1=O [Stavudine (d4T)] | -1.23 ± 0.24 um | -0.83 ± 0.28 um
Cc1[nH]c(/C=C2\C(=O)Nc3ccc(S(=O)(=O)N(C)c4cccc(Cl)c4)cc32)c(C)c1C(=O)N1CCN(C)CC1 | -1.76 ± 0.17 um | 0.39 ± 0.23 um
CC(C)N(C[C@H]1O[C@@H](n2cnc3c(N)ncnc32)[C@H](O)[C@@H]1O)[C@H]1C[C@@H](CCc2nc3cc(C(C)(C)C)ccc3[nH]2)C1 | -1.07 ± 0.18 um | 0.03 ± 0.15 um
CCCc1nn(C)c2c(=O)[nH]c(-c3cc(S(=O)(=O)N4CCN(C)CC4)ccc3OCC)nc12 [Sildenafil Citrate] | 0.56 ± 0.13 um | 0.02 ± 0.19 um
NCCCCCC(=O)O [(6-) e-Aminocaproic acid] | 0.58 ± 0.18 um | 0.33 ± 0.19 um
c1cnc2cc3c(cc2n1)[C@@H]1CNC[C@H]3C1 [Varenicline Tartrate] | -0.25 ± 0.17 um | -0.23 ± 0.19 um
NC(=O)c1cn(Cc2c(F)cccc2F)nn1 [Rufinamide] | -0.32 ± 0.23 um | -0.62 ± 0.2 um
O=C(O)CC[C@H]1CC[C@@](c2cc(F)ccc2F)(S(=O)(=O)c2ccc(Cl)cc2)CC1 | 0.12 ± 0.16 um | -0.45 ± 0.11 um
C=CC1=C(C(=O)O)N2C(=O)[C@@H](NC(=O)/C(=N\O)c3csc(N)n3)[C@H]2SC1 [Cefdinir] | 0.62 ± 0.17 um | 0.04 ± 0.14 um
Cc1nnc(C(=O)NC(C)(C)c2nc(C(=O)NCc3ccc(F)cc3)c(O)c(=O)n2C)o1 [Raltegravir (MK-0518)] | -0.52 ± 0.28 um | -0.73 ± 0.3 um
CCCCCCCCCC(=O)N[C@@H](Cc1c[nH]c2ccccc12)C(=O)N[C@H](CC(N)=O)C(=O)N[C@@H](CC(=O)O)C(=O)N[C@@H]1C(=O)NCC(=O)N[C@@H](CCCN)C(=O)N[C@@H](CC(=O)O)C(=O)N[C@H](C)C(=O)N[C@@H](CC(=O)O)C(=O)NCC(=O)N[C@H](CO)C(=O)N[C@@H]([C@H](C)CC(=O)O)C(=O)N[C@@H](CC(=O)c2ccccc2N)C(=O)O[C@@H]1C [Daptomycin] | 0.81 ± 0.27 um | -0.07 ± 0.28 um
Nc1ccc(S(=O)(=O)Nc2ncccn2)cc1 [Sulfadiazine] | 1.11 ± 0.25 um | -0.4 ± 0.14 um
C[C@H]1O[C@@H](n2cc(F)c(=O)[nH]c2=O)[C@H](O)[C@@H]1O [Doxifluridine] | 0.28 ± 0.26 um | -0.58 ± 0.29 um

Arranged by number of heavy atoms (ascending): some entries from above.
Compound | rod outer segment growth distance Dg [1] | rod outer segment shedding distance Ds [2]
NCCCCCC(=O)O [(6-) e-Aminocaproic acid] | 0.58 ± 0.18 um | 0.33 ± 0.19 um
Cn1nc(C(C)(C)C)cc1C(=O)N[C@@H](Cc1cccc(Cl)c1)C(=O)NCC#N [Cathepsin Inhibitor 1] | 0.96 ± 0.16 um | -0.28 ± 0.13 um
O=C(NCCCNc1nc(Nc2cccc(NC(=O)N3CCCC3)c2)ncc1I)c1cccs1 | -0.21 ± 0.25 um | -0.28 ± 0.31 um
